# Results of single-concentration screens

Amino acid sequences for entries named in this document (tags omitted). Residues count along the entry.
UniProt Q4DA54, 1-478: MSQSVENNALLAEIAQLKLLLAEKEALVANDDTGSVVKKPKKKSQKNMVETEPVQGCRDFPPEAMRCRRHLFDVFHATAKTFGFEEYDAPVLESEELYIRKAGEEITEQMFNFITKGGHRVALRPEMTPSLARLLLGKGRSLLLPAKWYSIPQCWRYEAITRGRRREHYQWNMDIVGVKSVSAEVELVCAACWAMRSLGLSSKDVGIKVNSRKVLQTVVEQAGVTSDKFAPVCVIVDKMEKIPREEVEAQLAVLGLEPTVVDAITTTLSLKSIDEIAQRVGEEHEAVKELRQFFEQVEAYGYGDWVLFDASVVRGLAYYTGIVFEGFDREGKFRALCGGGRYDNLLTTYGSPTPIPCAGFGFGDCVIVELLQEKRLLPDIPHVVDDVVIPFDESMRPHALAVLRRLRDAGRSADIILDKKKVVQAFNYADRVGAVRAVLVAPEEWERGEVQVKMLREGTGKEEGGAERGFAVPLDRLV
UniProt A4I591, 1-473: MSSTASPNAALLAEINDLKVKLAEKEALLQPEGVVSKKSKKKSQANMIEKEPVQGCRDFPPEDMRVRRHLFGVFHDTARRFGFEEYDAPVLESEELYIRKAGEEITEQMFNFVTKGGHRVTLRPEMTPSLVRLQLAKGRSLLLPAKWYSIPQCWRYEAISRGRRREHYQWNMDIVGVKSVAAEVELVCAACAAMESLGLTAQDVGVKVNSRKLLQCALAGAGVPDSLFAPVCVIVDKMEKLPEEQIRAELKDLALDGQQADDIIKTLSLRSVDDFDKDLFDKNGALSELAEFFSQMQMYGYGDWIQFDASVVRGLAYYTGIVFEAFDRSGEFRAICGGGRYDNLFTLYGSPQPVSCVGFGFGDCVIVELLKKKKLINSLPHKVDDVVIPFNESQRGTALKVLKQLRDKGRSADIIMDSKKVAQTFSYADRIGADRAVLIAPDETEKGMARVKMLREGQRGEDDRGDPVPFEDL
UniProt Q8IDJ8, 1-583: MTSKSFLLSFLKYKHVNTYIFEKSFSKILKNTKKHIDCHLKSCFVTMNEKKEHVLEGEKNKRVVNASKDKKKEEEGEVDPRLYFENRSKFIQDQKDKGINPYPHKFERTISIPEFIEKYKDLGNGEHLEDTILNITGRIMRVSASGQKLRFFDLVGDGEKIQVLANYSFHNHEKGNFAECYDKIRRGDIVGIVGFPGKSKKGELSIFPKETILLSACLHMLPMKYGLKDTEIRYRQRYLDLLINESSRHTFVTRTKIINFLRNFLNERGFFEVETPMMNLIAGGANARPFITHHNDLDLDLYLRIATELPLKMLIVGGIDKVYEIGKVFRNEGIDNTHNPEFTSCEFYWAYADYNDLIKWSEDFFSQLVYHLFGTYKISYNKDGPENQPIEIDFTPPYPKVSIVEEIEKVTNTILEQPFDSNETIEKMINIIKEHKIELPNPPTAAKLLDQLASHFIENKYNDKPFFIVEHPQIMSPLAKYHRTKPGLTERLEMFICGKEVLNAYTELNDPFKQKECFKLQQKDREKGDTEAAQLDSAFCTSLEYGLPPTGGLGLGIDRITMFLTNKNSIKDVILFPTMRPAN
UniProt P9WNZ1, whole entry: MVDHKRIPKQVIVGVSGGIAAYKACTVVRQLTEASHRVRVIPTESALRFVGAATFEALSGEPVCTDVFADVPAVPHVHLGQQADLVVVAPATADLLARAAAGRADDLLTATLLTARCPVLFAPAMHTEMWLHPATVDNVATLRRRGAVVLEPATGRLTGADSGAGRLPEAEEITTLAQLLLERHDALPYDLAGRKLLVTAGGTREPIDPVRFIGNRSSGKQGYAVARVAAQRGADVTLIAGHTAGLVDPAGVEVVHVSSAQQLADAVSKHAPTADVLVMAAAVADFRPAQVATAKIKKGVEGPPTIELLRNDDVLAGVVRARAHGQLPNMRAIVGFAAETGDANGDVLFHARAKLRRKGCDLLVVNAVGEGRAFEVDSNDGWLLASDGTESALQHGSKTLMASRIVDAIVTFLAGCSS

Data taken from ChEMBL document CHEMBL3988442, “University of Dundee, Small-Polar-MMV Screening Library” (2021).

TcHisRS: 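Histidine-tRNA ligase, Trypanosoma cruzi CL Brener (UniProt Q4DA54). Enzyme assay of histidyl-tRNA synthetase; the read-out is not stated. Tested at 30 µM. Direction is inferred from retests: higher values go with stronger inhibition. Of about 69,000 compounds tested this way, about 31 (0.045%) reached 50% or more in at least one test.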
LiHisRS: 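Histidine-tRNA ligase, Leishmania infantum (UniProt A4I591). Enzyme assay of histidyl-tRNA synthetase; the read-out is not stated. Concentration: 30 µM. Direction is inferred from retests: higher values go with stronger inhibition. The assay is labelled LdHisRS but filed under L. infantum. Of about 69,000 compounds tested this way, about 410 (0.6%) reached 50% or more in at least one test.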
Toxoplasma: 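Assay of Toxoplasma gondii numbers, read through their beta-galactosidase reporter with a colour substrate. Compounds at 10 µM. Higher reads as fewer parasites (inferred from which compounds were picked for retests). Of about 67,000 compounds tested this way, about 260 (0.38%) reached 50% or more in at least one test.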
PfKRS1: 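Enzyme assay of the cytosolic lysyl-tRNA synthetase in 384-well plates, read by luminescence. Target: Lysine-tRNA ligase, Plasmodium falciparum 3D7 (UniProt Q8IDJ8). Tested at 30 µM. Higher reads as stronger inhibition, judged from the few compounds that gave an IC50. About 69,000 compounds were tested under these conditions; 0.071% (about 49) showed 50% or more at least once.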
CoaBC: 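Coenzyme A biosynthesis protein CoaBC, Mycobacterium tuberculosis (UniProt P9WNZ1). Enzyme assay of CoaBC with a phosphate dye (Biomol Green) read at 650 nm. Tested at 30 µM. Direction is inferred from only a few compounds that gave an IC50; most scored high, so higher reads as stronger inhibition. Most strong results did not repeat in a second test. Size under these conditions: about 67,000 compounds, about 40 of them at 50% or above in at least one test.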

Each number is a percent effect as filed. The record does not define 0% and 100%; most values in the screen are far below 50% and negative numbers occur (in some assays of this library far below -100). The compounds are a random part of those screened. A dash means the value is not listed here; it may have been measured.

structure	TcHisRS	LiHisRS	Toxoplasma	PfKRS1	CoaBC
CN(CCC#N)C(=O)CN(C1CC1)C1CCc2ccccc21 (stereo not drawn)	3.982	18.58	6.653	2.778	2.804
O=C(c1cc2c([nH]c1=O)CCC2)N1CCCC1c1ccc(F)cc1 (stereo not drawn)	4.348	18.18	-3.176	3.896	9.879
CN(C)c1cc(C(=O)N2CCN(c3nccs3)CC2)ccn1	7.331	17.59	-49.14	1.787	7.632
CCCc1n[nH]c(C2CN(C(=O)CCn3cc(C)cn3)CCO2)n1 (stereo not drawn)	-3.509	1.77	14.25	0.6781	9.759
CCc1nn(C)c(CC)c1CNC(=O)Nc1cccc2c1CCN2C	3.867	9.859	2.479	-0.3329	4.577
Cc1c(Br)cccc1S(=O)(=O)NCc1ccnn1C	6.077	6.25	1.408	7.448	0.8929
O=C(CS(=O)(=O)c1ncccc1Cl)NC1CCCc2ccccc21 (stereo not drawn)	3.784	5.479	17.78	-2.652	-2.727
CCC(C)(NCC(=O)OC)c1nc(C)cs1 (stereo not drawn)	-2.326	14.75	-7.362	2.392	-1.288
Cc1cc(-c2cccnc2)nc(C2CCCN2S(C)(=O)=O)n1 (stereo not drawn)	-7.692	9.859	-	2.296	-2.375
CN1C(=O)CCC12CCCN(C(=O)c1ccoc1)C2 (stereo not drawn)	2.151	3.509	6.173	0.1493	2.326
Cc1csc2ncc(-c3ccnc(N4CCCC[C@@H]4CO)n3)c(=O)n12	6.415	9.459	-15.06	-6.281	2.738
CCC(O)CN1CCN(C(=O)c2ccn(-c3cccc(F)c3)n2)CC1 (stereo not drawn)	3.175	9.091	-16.57	0.6968	5.325
COc1ccc2c(c1)CC(C1CCOCC1)N(C(=O)c1cnccn1)C2 (stereo not drawn)	1.149	4.317	9.771	0.5125	1.196
NC(=O)COc1cccc(CN2CCCC2c2ccc[nH]2)c1 (stereo not drawn)	2.976	11.83	-25.34	-0.3507	1.096
O=C(CCc1nc(Cl)n[nH]1)N[C@H]1CC[C@H]1NC1Cc2ccccc2C1	12.64	19.35	-	2.695	4.059
O=C(Nc1ccccc1)c1n[nH]c(-n2cnnc2)n1	8.696	13.79	1.953	-1.52	-3.233
Cc1cc(C(=O)N(C)Cc2nc(-c3ccccn3)no2)c(C)o1	6.557	8.772	-6.873	4.503	7.625
COC[C@@]12CCO[C@@H]1CCN(C(=O)c1ccc(F)c(F)c1)C2	4.386	9.677	-	1.806	-0.6165
O=C1NCC(c2ccc(F)cc2)Cc2[nH]c(CCN3CCCC3)nc21 (stereo not drawn)	39.3	46.15	0.9091	1.094	12.35
CC(C)CN1CCCC2(CCN(c3ccccn3)C2)C1 (stereo not drawn)	6.897	13.16	-	-2.031	9.572
CN(C)Cc1cncc2c1CCN(Cc1ccoc1)C2	5.291	6.364	-	2.153	3.704
CCn1nc2c(cc1=O)CN(Cc1nc(-c3ccco3)no1)CC2	11.18	33.03	-39.83	2.575	4.092
CCOc1ccccc1CCC(=O)Nc1c(C)nn(C)c1C	-0.8696	11.67	13.29	3.073	-4.551
Cc1cc(C)n(CC2CCCN2CCS(C)(=O)=O)n1 (stereo not drawn)	7.059	7.339	-2.075	0.8139	-0.5115
CCN1CCN(C2CCN(Cc3nnc(C(C)(C)C)o3)CC2)C1=O	-1.132	16	6.793	4.444	6.41
Cc1cc(C(=O)NC(C)C(=O)Nc2cc(F)ccc2C)nc(C)n1 (stereo not drawn)	-2.381	4.444	3.759	4.797	-1.716
Cn1c(=O)[nH]c(=O)n2c(CC(=O)Nc3ccccc3)cnc12	1.775	-8.276	13.39	3.128	2.895
c1ccc(CO[C@@H]2CN(Cc3ccoc3)[C@@H]3COC[C@@H]32)nc1	10.58	17.27	-	-0.5141	1.481
Cc1nnc(C(C)N2CCCN(Cc3ccc(F)cc3)CC2)o1 (stereo not drawn)	7.558	8.929	10.85	-0.6605	13.82
COCCNC(=O)[C@]12COC[C@H]1CN(C1CCOCC1)C2	6.186	14	-	-2.605	0.9852
COC(=O)CCC(=O)Nc1ccc(Br)c(C)n1	0	16.44	-17.94	4.215	12.35
Cc1ccc(-c2nnc(CN3CC(n4cc(C)cn4)C3)o2)cc1	4.04	17.46	-1.947	3.311	-0.3241
Cc1ccc(CN2CCC3(CC2)NC(=O)CC3c2ccncc2)cc1C (stereo not drawn)	10.74	5.455	-	5.586	-5.042
NC(=O)C1CCN(c2nc3nccc(-c4cccnc4)c3c(=O)[nH]2)CC1	-2.484	12.5	-7.646	2.974	1.646
CN(Cc1ccco1)C1CCC12CCN(C(=O)c1ccnnc1)CC2 (stereo not drawn)	5.825	13.59	-	-0.7571	-0.2545
CC(c1cccc(-c2nccn2CCc2ccccn2)c1)N(C)C (stereo not drawn)	5.155	8.571	-8.37	2.317	9.451
CN1Cc2ccccc2NC(=O)C12CCNC2 (stereo not drawn)	4.142	17.93	0.4264	5.836	2.895
Cc1ccc(C)c(Oc2cc(-n3nc(C)c(C#N)c3N)nc(C)n2)c1	8.247	14.94	21.41	0.6631	13.65

Some entries from above, unchanged:

{"structure": "CCC(C)(NCC(=O)OC)c1nc(C)cs1", "stereo": "stereo not drawn", "TcHisRS": -2.326, "LiHisRS": 14.75, "Toxoplasma": -7.362, "PfKRS1": 2.392, "CoaBC": -1.288}
{"structure": "O=C1NCC(c2ccc(F)cc2)Cc2[nH]c(CCN3CCCC3)nc21", "stereo": "stereo not drawn", "TcHisRS": 39.3, "LiHisRS": 46.15, "Toxoplasma": 0.9091, "PfKRS1": 1.094, "CoaBC": 12.35}
{"structure": "COC(=O)CCC(=O)Nc1ccc(Br)c(C)n1", "TcHisRS": 0, "LiHisRS": 16.44, "Toxoplasma": -17.94, "PfKRS1": 4.215, "CoaBC": 12.35}
{"structure": "CN(CCC#N)C(=O)CN(C1CC1)C1CCc2ccccc21", "stereo": "stereo not drawn", "TcHisRS": 3.982, "LiHisRS": 18.58, "Toxoplasma": 6.653, "PfKRS1": 2.778, "CoaBC": 2.804}
{"structure": "Cc1c(Br)cccc1S(=O)(=O)NCc1ccnn1C", "TcHisRS": 6.077, "LiHisRS": 6.25, "Toxoplasma": 1.408, "PfKRS1": 7.448, "CoaBC": 0.8929}